Experimental data: PubChem BioAssay AID602196 (INSERM, 2012)
Shown is one part, drawn at random, of about 23,000 deposited reagents. Of all reagents, 455 (2%) are marked active. 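Active includes both protection and sensitisation; some change values fall well beyond the stated -50 to +50 range.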 Not stated in the record: the amount of reagent.

- Assay: 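Knock-downs that protect lung cancer cells from cisplatin or sensitise them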
- System: human A549 lung cancer cells
- Knock-down reagent: siRNA pair against human genes
- Time to read-out: 48 h transfection before cisplatin; time from cisplatin to read-out not stated
- Conditions: cisplatin at a dose killing half of control-siRNA cells; exact dose and duration not given
- Measurement: 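Cisplatin cell death as a shift from the 50% death seen with control siRNA; siRNAs toxic or growth-blocking alone scored 0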
- Scale: two-siRNA summed score (-2 to +2): higher = both siRNAs protect from cisplatin killing; -2 means both sensitise; mean protection from cisplatin (shift in death) and protection from cisplatin (shift in death), siRNA C and protection from cisplatin (shift in death), siRNA D: higher = protection from cisplatin killing
- Rule for the call: 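siRNAs harmful alone (LDH or WST-1) get 0; others get +1 for less and -1 for more cisplatin killing; genes are active when the two siRNAs give the same sign, summing to ±2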
- Meaning of the calls: active = both siRNAs shift cisplatin killing the same way; inactive = no consistent shift, or siRNA harmful alone

gene knocked down | two-siRNA summed score (-2 to +2) | mean protection from cisplatin (shift in death) (%) | protection from cisplatin (shift in death), siRNA C (%) | protection from cisplatin (shift in death), siRNA D (%) | outcome
CCDC82 | -1 | -8.6 | -2.9 | -14.2 | inactive
LOC388616 | 0 | 8.7 | 9.9 | 7.5 | inactive
SALL1 | 0 | -0.6 | 8 | -9.2 | inactive
LOC387630 | 0 | 4.5 | 8 | 0.9 | inactive
LOC283902 | 0 | 4.9 | 8.8 | 1 | inactive
DMRTC2 | -1 | -10.3 | -25.2 | 4.6 | inactive
ZNF559 | 0 | -0.6 | 0.1 | -1.3 | inactive
LOC124446 | 0 | 1.6 | -2.8 | 6.1 | inactive
SWT1 | 0 | -1.8 | -5.2 | 1.5 | inactive
PCDHB13 | 0 | 12.1 | 12.8 | 11.5 | inactive
LINC01096 | 0 | 13 | 16.3 | 9.6 | inactive
STX10 | 0 | 3.1 | 24.3 | -18.1 | inactive
DBN1 | 0 | 8.1 | 13.2 | 3 | inactive
MGC20533 | 0 | 20.3 | 29.1 | 11.4 | inactive
TEX14 | 1 | 18 | 12.8 | 23.2 | inactive
LTBP3 | 2 | 24.5 | 18.5 | 30.5 | active
CA14 | 0 | -1.4 | 4.8 | -7.5 | inactive
MGC14276 | 0 | 8.9 | 7.2 | 10.6 | inactive
TRIM8 | 0 | 3.7 | 7.5 | -0.1 | inactive
CD40 | 0 | 3.4 | -8.2 | 15 | inactive

Next part; the last 6 above are carried over.
gene knocked down | two-siRNA summed score (-2 to +2) | mean protection from cisplatin (shift in death) (%) | protection from cisplatin (shift in death), siRNA C (%) | protection from cisplatin (shift in death), siRNA D (%) | outcome
TEX14 | 1 | 18 | 12.8 | 23.2 | inactive
LTBP3 | 2 | 24.5 | 18.5 | 30.5 | active
CA14 | 0 | -1.4 | 4.8 | -7.5 | inactive
MGC14276 | 0 | 8.9 | 7.2 | 10.6 | inactive
TRIM8 | 0 | 3.7 | 7.5 | -0.1 | inactive
CD40 | 0 | 3.4 | -8.2 | 15 | inactive
LOC390338 | 0 | 10.6 | 4.7 | 16.5 | inactive
B9D1 | -1 | -10.5 | -2.3 | -18.8 | inactive
NUFIP2 | 0 | -2.8 | -10.2 | 4.6 | inactive
LOC196266 | 1 | 44.2 | 29.8 | 58.7 | inactive
BTF3L4 | 1 | 16.3 | 7.5 | 25.2 | inactive
LOC340221 | 1 | 10.9 | 0.8 | 21.1 | inactive
STOML1 | -1 | -7.7 | 15 | -30.5 | inactive
LOC389435 | 0 | 33 | 31.5 | 34.6 | inactive
FAM167A | 0 | -6.6 | 2.4 | -15.7 | inactive
IL17C | -1 | -3.9 | -17.6 | 9.8 | inactive
SYNGAP1 | 0 | 28.2 | 29.3 | 27.2 | inactive
FLT4 | 0 | 23.5 | 41.9 | 5.1 | inactive
HBZ | 1 | 16.3 | 12.6 | 19.9 | inactive
OMD | 0 | 0.2 | -1.2 | 1.6 | inactive
NOX4 | -1 | -11.4 | -6.7 | -16 | inactive
TRAM2 | 0 | 1.8 | -0.7 | 4.3 | inactive
KHDC1 | 0 | 2.2 | 6.1 | -1.8 | inactive
LOC440359 | 0 | 13.3 | 13.2 | 13.4 | inactive
FGD5 | 0 | 13.2 | 6.3 | 20 | inactive
SLC2A4RG | 0 | 2.4 | 10 | -5.3 | inactive
CD83 | 0 | -0.1 | 2.2 | -2.5 | inactive
FRMPD2 | 0 | -4.1 | -2.7 | -5.6 | inactive
SLC11A1 | 0 | 1.9 | 3.5 | 0.3 | inactive
ARF5 | 0 | 3.7 | 4.8 | 2.5 | inactive
UBR5 | 0 | -34.2 | -53.9 | -14.5 | inactive
LOC134121 | 0 | 2.8 | -1.3 | 6.9 | inactive
CASS4 | 0 | -8 | -14.9 | -1.2 | inactive
MCOLN2 | 1 | 4.5 | 26.8 | -17.8 | inactive
MIA3 | 0 | 9.2 | 11 | 7.4 | inactive
ZIM3 | 0 | -3 | -7.8 | 1.9 | inactive
ARX | 1 | 25.7 | 33.4 | 18.1 | inactive
FAM149B1P1 | 0 | 10.5 | 11.9 | 9.1 | inactive
OSCP1 | 0 | 16.4 | 5.4 | 27.3 | inactive
RAB15 | 0 | 3.6 | 0.5 | 6.8 | inactive
TLCD4 | 0 | -2.9 | -1.5 | -4.2 | inactive
PALM | 0 | 1.2 | -8.8 | 11.3 | inactive
TAFA4 | 0 | 8.2 | 6.9 | 9.5 | inactive
